The results in this text go back to the supplement of paper PMC10849652.

Protein sequences, listed by entry. Tags and fused reporters are not part of them. Lines headed by an entry give the natural chain unless they say otherwise; changes in a name come on top.
UniProt Q13164: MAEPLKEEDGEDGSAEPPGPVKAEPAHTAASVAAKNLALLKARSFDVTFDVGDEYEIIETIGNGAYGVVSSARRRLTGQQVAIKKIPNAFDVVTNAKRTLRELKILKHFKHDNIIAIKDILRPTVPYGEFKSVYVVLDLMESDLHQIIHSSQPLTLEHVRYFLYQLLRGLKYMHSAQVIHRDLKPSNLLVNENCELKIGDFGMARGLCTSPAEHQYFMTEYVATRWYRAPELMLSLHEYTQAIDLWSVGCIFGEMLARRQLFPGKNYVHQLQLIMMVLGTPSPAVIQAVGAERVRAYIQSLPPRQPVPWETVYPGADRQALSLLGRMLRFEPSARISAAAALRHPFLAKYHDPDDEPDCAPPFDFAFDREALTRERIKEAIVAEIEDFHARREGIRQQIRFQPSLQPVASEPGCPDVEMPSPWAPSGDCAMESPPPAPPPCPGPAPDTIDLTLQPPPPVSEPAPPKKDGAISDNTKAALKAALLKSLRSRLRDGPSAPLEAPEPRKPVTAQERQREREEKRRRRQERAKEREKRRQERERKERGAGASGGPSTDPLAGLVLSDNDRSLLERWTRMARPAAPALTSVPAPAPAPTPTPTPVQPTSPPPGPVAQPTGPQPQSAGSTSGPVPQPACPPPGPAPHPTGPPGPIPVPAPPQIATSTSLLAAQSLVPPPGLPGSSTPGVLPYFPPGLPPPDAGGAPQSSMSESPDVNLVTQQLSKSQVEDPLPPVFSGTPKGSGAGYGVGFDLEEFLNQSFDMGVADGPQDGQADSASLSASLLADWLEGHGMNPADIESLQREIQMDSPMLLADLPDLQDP
UniProt Q16553: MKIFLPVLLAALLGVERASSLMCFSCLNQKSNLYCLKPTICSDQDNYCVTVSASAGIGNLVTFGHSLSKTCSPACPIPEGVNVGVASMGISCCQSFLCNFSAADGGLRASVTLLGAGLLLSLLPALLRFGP
UniProt P07948: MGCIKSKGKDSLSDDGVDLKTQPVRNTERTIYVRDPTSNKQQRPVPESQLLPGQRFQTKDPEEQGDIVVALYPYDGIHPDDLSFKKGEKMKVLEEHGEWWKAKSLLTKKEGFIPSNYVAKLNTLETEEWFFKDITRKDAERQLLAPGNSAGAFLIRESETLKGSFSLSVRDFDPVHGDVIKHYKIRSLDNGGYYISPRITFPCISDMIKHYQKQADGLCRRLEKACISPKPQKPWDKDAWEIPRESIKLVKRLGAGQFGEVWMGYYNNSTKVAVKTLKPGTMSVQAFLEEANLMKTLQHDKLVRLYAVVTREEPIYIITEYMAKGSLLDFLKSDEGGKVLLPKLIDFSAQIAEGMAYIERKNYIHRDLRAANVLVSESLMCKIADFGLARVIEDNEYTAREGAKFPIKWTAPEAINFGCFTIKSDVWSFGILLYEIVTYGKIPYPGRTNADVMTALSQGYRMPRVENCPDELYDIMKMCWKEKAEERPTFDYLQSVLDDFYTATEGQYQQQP
UniProt P46734: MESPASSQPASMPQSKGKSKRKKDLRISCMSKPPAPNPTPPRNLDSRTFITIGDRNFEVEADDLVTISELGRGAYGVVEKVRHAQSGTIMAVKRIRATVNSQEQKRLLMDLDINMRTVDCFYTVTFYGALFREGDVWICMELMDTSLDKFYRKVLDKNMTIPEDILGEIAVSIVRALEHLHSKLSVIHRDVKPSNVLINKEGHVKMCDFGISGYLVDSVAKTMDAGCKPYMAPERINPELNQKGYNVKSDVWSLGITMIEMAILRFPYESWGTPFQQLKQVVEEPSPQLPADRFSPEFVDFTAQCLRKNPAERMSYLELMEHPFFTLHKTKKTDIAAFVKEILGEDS
UniProt Q5TCQ9: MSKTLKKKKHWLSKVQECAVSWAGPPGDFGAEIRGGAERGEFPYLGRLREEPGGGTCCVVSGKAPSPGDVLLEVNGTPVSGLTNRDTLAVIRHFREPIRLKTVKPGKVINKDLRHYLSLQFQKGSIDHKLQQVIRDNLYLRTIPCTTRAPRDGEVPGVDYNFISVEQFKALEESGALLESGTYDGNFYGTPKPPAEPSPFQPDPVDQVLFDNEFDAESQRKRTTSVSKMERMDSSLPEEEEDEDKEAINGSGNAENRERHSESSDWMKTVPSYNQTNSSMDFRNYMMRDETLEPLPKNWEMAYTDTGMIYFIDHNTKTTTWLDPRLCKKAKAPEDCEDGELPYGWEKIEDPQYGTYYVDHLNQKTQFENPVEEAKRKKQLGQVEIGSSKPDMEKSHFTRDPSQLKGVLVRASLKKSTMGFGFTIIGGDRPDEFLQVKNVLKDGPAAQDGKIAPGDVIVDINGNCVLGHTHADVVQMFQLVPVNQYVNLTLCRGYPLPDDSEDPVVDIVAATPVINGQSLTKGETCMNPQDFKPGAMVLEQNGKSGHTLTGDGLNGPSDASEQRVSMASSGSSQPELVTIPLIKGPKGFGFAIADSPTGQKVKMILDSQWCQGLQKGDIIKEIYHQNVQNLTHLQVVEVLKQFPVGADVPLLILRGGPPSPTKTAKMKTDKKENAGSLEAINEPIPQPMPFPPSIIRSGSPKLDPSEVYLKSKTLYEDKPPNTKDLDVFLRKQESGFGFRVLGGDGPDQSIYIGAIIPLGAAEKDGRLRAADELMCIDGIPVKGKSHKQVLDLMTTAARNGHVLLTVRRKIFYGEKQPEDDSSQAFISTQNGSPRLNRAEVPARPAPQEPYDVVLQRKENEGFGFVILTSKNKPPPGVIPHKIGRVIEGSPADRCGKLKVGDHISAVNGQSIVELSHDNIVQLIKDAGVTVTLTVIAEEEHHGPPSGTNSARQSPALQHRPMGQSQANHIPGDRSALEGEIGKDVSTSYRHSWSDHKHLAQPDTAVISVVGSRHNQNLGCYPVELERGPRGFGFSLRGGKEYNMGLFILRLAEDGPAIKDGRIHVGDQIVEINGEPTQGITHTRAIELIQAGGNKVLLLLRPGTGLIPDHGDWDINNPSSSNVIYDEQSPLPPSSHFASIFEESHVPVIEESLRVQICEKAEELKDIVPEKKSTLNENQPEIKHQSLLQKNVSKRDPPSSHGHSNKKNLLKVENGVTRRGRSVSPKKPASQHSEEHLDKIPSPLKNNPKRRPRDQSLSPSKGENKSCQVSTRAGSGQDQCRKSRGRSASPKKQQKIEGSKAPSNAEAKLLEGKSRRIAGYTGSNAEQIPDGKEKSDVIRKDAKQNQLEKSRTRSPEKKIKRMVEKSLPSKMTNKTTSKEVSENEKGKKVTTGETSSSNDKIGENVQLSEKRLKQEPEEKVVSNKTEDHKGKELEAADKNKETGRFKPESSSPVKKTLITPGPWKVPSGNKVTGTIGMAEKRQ
UniProt Q9Y2E5: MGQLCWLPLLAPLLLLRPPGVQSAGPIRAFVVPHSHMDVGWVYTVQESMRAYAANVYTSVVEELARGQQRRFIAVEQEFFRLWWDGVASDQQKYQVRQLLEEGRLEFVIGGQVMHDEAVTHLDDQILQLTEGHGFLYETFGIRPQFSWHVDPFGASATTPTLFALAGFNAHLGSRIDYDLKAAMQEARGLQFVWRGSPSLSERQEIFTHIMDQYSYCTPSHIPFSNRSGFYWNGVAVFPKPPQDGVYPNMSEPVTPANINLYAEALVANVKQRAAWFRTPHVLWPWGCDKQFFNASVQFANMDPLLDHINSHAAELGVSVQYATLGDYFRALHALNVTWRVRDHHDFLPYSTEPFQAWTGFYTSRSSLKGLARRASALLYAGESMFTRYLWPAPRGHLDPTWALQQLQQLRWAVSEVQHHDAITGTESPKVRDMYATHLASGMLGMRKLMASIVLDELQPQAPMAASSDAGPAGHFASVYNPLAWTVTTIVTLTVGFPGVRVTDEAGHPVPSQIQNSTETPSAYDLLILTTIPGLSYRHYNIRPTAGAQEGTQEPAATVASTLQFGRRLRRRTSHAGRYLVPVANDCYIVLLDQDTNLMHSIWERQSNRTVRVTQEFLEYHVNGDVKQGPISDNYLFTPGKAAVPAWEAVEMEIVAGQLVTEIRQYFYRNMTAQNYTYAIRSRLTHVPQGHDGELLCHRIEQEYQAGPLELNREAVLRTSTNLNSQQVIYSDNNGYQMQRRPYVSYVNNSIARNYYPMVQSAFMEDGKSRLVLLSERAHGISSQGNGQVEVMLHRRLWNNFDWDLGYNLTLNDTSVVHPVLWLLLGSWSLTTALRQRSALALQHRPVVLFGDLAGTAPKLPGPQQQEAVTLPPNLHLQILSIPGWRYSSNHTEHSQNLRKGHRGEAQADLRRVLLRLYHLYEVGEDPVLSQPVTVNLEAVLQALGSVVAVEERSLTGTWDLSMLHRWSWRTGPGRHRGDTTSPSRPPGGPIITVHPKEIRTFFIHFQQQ
UniProt Q8WZA0: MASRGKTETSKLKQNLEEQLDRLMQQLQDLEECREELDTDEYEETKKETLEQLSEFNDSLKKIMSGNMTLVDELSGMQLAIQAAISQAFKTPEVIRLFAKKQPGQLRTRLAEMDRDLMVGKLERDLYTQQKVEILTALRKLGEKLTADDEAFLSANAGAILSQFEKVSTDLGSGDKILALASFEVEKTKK
UniProt Q9Y6D9: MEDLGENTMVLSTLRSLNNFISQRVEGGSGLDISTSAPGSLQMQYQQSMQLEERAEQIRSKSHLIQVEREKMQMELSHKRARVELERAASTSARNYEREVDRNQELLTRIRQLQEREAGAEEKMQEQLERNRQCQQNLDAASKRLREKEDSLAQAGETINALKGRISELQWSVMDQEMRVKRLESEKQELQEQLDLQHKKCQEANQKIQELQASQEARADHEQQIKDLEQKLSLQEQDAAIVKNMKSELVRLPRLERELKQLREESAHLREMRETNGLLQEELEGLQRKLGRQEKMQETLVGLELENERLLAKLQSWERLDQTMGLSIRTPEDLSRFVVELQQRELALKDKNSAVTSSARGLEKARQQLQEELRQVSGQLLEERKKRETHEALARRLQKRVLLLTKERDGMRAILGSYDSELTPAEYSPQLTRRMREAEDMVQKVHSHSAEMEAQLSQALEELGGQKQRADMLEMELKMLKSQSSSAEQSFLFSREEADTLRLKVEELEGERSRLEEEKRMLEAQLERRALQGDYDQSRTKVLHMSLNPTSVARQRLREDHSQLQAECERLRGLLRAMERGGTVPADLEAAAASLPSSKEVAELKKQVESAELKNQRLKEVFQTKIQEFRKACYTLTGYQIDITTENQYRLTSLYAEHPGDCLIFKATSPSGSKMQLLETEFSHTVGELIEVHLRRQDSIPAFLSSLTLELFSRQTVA

The other results are listed elsewhere or left out.

Compound in this assay: c1cn2cc(-c3ccc4cn[nH]c4c3)nc(Nc3ccc(N4CCOCC4)cc3)c2n1 [entospletinib]
The experiment in a line: log2 fold change, soluble protein after heating vs DMSO (PISA); higher = thermal stabilisation; K562 lysate, 10 uM; active = over 0.2 and 3.5 SD of the protein, either way, in both replicates (recomputed). The procedure, abridged: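 A 30 min treatment with 10 μM compound was applied to crude K562 extract at 1 mg/mL protein in PBS pH 7.4 with 1 mM MgCl2. Heating for 3 min spanned 48°C-58°C, after which aliquots were pooled, adjusted to 0.5% NP-40 at 4°C and spun at 21,000xg for 90 min. TMTpro 16plex LC-MS/MS of the supernatant, with channel sums equalised, gave values recorded as log-two fold change in thermal stability against solvent controls, from duplicates.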
Take MAPK7 (UniProt Q13164): the log2 fold change was inactive: 0.029.
The result for MAP3K20 isoform 2 (UniProt Q9NYL2) reads inactive: -0.064; that for LY6E (UniProt Q16553), inactive: -0.013; that for LYN isoform 2 (UniProt P07948), inactive: 0.129.
On to MAP2K3 isoform 3 (UniProt P46734), for which the log2 fold change was inactive: 0.072.
The value for MAGI3 isoform 1 (UniProt Q5TCQ9) was inactive: -0.045; that for MAN2B2 (UniProt Q9Y2E5) was inactive: 0.019; that for LZIC isoform 2 (UniProt Q8WZA0) was inactive: 0.002.
The value for MAD1L1 (UniProt Q9Y6D9) was inactive: 0.004.
